Laboratory results reported in paper PMC5442209.

How the values were obtained:
[1] = biological target: VvSLY1b (Vitis vinifera SLEEPY1 b) (Vitis vinifera) (UniProt F6GZW7); assay: two-hybrid; VvSLY1 as Gal4 DNA-BD bait (pGBKT7), VvDELLA as Gal4 AD prey (pGADT7); SC-Leu/Trp/His with 5 mM 3-AT; β-galactosidase liquid assay
[2] = biological target: VvSLY1a (Vitis vinifera SLEEPY1 a) (Vitis vinifera); assay: as above

Row | binding [1] | binding [2] | Substance
1 | binds | binds | VvDELLA2 allele of cv. Black finger (from UniProt A0A1X9T4C6)
2 | binds | binds | VvDELLA3 of cv. Black finger (from UniProt A0A1X9T4H2)

These are yes or no findings as the source states them, for the method shown. Binding calls can cover weak binding; strength is not graded here.
